Results reported in US20110166428A1, “NOVEL METHOD FOR MEASURING INSULIN RESISTANCE” (UNIVERSITE JOSEPH FOURIER, priority 2008, published 2011).

Tested on: cardiac cells
Experiment: Post-myocardial infarction cardiac insulin resistance index by 6DIG nuclear imaging
Type: in vivo, rat
Procedure: FIG. 21 represents the indices of cardiac insulin resistance (K(2,1)insulin/K(2,1)Basal) (see paragraph II-2) of three groups of rats. The value of the index of cardiac insulin resistance is indicated along the y-axis. The three groups of rats are indicated by the three columns on the x-axis. The columns are considered from left to right. The measurements are carried out 7 days after the surgical operation.
The myocardial infarction experimental model utilised here is that induced by temporary in situ ligature of the left coronary artery. This protocol induces a transmural infarction, the scale of which is sufficient to lead to the development of severe cardiac insufficiency. The animals are anaesthetised by intraperitoneal injection of a 1:1 mixture of ketamine/xylazine, (50 mg/kg and 10 mg/kg respectively), and a volatile maintenance anaesthesia (isoflurane) is applied until the end of the surgical protocol. The rats are intubated and artificially ventilated (0.1 mL/100 g body weight, frequency: 65/min, gas mixture: 80% air+19.5% oxygen+0.5% isoflurane). Throughout the process, the rat is located on a heating blanket (Homeothermic Blanket System, Harvard Apparatus) making it possible to maintain its body temperature at 37° C. […]
Seven days after the thoracic surgery, each rat is anaesthetised by intra-peritoneal injection of a solution of sodium pentothal (54.7 mg/ml). […] The arterial glycaemia of the rat is measured by means of reactive strips (Accu-Chek® Performa, Laboratoires Roche). […]
After the first 20 minutes of acquisition, which constitute the test in the basal state (FIG. 1, measurement A), a bolus of insulin (Actrapid, Novo Nordisk, France, 7.5 IU/mL, 100 μL per 300 g of body weight) is injected (FIG. 1, time 2). After 5 minutes (FIG. 1, time 3), the glycaemia is measured and a bolus of about 170 μCi of 6DIG is injected. […] The blood samples are passed into a counter (Cobra II Auto-Gamma, Packard, Canberra Company) which counts the radioactivity in counts per minute, to determine the blood kinetics of the tracer. […]

Question: With `O=C[C@H](O)[C@@H](O)[C@H](O)[C@H](O)CI` [6DIG, 6-Deoxy-6-Iodo-D-Glucose] as the compound, how does the “index of cardiac insulin resistance (K(2,1)insulin/K(2,1)Basal)” value (shortened to “index of cardiac insulin resistance”) (RI rats (ischaemia reperfusion), 7 days after surgery, n=11, FIG. 21) read?
Answer: 1.09+/−0.04

Question: What about the “index of cardiac insulin resistance” value (Sham rats, 7 days after surgery without occlusion, n=13, FIG. 21) of the same compound?
Answer: 1.62+/−0.16

Question: What about the “index of cardiac insulin resistance” value (control group of rats, no surgery, n=11, FIG. 21) of the same compound?
Answer: 2.46+/−0.25
